Measurements reported in patent US20180177845A1, “METHOD FOR TREATMENT OR PREVENTION OF A CANCER” (priority 2016, published 2018).
These are yes or no findings as the source states them, for the method shown. Binding seen in cells or lysates may run through a third protein. Some results given as binding are weak or reduced against the parent protein; the word gives no strength. Where a sequence is shown, tags or fusion partners need not be part of it.

Protein sequences, listed by entry. Tags and fused reporters are not part of them. Residues count along the entry.
UniProt P16144, residues 28-1822: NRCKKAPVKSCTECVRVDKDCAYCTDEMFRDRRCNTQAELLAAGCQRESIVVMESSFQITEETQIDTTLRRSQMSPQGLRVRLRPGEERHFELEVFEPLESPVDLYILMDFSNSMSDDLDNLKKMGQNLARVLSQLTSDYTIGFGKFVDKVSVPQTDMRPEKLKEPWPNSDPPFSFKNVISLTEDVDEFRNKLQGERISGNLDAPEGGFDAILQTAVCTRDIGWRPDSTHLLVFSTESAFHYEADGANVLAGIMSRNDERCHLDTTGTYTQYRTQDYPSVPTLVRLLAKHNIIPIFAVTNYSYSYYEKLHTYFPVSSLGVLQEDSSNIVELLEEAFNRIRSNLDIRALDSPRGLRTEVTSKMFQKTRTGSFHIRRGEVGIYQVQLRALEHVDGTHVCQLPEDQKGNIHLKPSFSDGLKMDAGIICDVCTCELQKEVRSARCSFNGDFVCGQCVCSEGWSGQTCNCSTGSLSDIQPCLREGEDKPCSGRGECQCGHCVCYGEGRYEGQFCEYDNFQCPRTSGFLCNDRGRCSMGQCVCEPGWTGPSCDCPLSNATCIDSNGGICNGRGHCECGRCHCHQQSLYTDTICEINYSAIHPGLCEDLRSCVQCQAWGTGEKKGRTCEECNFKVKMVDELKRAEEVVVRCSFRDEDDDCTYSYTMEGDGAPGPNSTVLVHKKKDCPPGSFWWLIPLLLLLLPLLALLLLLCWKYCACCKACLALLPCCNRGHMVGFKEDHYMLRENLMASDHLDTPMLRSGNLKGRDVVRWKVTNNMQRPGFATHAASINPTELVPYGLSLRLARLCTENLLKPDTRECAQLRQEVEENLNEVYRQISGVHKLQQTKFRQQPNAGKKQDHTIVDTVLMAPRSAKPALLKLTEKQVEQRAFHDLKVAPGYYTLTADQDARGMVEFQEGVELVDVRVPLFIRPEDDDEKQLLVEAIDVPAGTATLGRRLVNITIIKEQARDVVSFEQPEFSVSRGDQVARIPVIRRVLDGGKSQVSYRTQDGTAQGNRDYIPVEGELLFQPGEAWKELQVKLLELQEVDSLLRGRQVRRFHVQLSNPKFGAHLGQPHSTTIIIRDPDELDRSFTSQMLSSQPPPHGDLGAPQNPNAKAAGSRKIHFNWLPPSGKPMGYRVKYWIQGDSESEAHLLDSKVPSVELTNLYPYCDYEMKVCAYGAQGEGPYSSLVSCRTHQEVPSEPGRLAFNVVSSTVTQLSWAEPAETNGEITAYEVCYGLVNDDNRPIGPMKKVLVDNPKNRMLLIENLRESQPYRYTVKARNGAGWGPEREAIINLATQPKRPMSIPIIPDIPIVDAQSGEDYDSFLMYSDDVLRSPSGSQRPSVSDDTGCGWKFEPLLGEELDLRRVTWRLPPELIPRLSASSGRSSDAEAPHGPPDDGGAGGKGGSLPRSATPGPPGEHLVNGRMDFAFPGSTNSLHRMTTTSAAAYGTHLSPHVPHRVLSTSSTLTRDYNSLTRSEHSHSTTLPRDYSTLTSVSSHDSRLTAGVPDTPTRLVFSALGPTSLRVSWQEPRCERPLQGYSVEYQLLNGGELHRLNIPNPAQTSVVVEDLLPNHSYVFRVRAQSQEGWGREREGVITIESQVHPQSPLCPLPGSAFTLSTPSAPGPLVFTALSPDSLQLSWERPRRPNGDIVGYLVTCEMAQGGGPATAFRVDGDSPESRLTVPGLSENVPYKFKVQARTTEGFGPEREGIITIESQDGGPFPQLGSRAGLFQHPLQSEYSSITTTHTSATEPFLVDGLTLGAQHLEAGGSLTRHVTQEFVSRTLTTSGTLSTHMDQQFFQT

Experiments:
[1] = target: β4 integrin (human) (UniProt P16144); assay: co-immunoprecipitation with β4 integrin in MDA-MB-231 cells; competitor full-length FAK (FIG. 4(a))
[2] = target: β4 integrin (human) (UniProt P16144); assay: co-immunoprecipitation with β4 integrin at rising FAK/25aa expression, MDA-MB-231 cells (FIG. 4(a))
[3] = target: β4 integrin (human) (UniProt P16144); assay: overexpression in MDA-MB-231 cells, co-immunoprecipitation

Measured: binding

LANNEKQGVRSHTVSVSETDDYAEI (peptide, not shown: large carriers) [GFP-tagged FAK/25aa]
binds: all assays above
